These are yes or no findings as the source states them, for the method shown. Binding seen in cells or lysates may run through a third protein. These calls come from enrichment with a bait or labelling near it, and not all partners need be listed. Where a sequence is shown, tags or fusion partners need not be part of it.
Target: T1, Pbp1-4×FLAG (C. neoformans) (UniProt J9VND4)
T1 sequence: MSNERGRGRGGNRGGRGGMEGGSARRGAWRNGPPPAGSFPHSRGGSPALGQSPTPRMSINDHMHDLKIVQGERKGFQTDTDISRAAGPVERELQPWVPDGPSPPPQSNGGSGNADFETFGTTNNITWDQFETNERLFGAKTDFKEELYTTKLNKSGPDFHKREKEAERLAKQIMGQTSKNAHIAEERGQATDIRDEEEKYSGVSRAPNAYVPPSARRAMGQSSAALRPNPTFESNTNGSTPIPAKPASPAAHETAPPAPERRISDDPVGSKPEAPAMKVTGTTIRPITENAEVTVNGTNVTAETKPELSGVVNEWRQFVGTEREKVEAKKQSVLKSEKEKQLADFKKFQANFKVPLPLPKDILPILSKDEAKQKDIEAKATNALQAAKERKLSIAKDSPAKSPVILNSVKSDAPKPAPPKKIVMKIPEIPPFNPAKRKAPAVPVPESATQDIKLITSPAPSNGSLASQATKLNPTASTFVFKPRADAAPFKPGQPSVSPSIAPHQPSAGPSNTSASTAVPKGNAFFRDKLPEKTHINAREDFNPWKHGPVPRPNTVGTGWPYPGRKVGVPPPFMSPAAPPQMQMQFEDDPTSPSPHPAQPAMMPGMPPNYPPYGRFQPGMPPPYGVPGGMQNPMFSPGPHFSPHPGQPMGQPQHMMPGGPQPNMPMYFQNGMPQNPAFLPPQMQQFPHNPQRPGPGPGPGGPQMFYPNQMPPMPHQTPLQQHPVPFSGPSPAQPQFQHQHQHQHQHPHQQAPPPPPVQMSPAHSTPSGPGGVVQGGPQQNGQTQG
Assay: affinity purification with mass spectrometry; anti-FLAG M2 affinity gel on lysate of HP181 (Pbp1-4xFLAG), untagged H99 as control; cells grown at 30°C then 1 h at 37°C; lysis buffer 50 mM Tris-HCl pH 7.5, 150 NaCl, 0.5 mM EDTA, 0.5% Triton X-100; 4°C; one Coomassie-stained band seen only with HP181 was excised, digested with trypsin and analysed by LC-MS/MS

The chains behind the UniProt entries cited, without tags or fusion partners. Where a name states a change or a piece, a line headed by the entry shows the natural chain unless it says otherwise.
UniProt J9VMS4: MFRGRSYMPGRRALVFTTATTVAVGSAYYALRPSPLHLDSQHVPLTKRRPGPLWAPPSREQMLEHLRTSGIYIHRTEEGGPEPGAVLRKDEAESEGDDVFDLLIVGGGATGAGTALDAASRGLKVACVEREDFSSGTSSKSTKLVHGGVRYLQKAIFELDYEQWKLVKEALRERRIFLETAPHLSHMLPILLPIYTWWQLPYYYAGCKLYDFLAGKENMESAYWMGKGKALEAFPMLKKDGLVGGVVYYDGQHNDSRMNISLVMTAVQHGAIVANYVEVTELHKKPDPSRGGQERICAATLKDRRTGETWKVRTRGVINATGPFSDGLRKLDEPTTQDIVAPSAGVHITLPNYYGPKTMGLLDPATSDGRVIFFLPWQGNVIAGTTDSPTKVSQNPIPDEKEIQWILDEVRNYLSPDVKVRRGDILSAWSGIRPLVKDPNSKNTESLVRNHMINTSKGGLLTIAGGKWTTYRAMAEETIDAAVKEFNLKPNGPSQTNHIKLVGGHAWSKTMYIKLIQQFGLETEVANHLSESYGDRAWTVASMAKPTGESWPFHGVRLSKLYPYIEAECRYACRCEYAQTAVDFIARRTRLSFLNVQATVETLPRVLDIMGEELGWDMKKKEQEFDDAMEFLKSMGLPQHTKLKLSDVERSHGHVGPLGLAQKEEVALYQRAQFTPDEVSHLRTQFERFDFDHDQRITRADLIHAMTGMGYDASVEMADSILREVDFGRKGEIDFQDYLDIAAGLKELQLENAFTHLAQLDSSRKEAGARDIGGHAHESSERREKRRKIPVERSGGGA
UniProt J9VT48: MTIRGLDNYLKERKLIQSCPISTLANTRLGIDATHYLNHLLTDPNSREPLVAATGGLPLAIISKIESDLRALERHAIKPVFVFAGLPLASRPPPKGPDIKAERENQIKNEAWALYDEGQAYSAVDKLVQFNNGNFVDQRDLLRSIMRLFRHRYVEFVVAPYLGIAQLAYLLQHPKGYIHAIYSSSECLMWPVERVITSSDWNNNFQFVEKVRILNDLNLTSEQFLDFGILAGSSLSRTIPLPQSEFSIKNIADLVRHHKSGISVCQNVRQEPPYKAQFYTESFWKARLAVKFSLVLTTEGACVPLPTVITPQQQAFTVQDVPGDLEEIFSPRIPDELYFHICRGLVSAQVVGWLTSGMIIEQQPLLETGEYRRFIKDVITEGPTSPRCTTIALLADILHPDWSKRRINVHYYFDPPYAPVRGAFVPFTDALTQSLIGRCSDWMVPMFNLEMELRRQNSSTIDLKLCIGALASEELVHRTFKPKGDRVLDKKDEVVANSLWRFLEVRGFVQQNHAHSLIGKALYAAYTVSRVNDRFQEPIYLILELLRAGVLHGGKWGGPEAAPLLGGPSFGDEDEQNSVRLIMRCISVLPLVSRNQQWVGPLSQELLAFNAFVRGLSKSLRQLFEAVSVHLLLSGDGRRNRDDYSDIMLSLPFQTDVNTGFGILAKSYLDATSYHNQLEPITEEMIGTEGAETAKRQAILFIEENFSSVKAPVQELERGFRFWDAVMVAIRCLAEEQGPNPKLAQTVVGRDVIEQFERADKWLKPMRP
UniProt J9VVA4: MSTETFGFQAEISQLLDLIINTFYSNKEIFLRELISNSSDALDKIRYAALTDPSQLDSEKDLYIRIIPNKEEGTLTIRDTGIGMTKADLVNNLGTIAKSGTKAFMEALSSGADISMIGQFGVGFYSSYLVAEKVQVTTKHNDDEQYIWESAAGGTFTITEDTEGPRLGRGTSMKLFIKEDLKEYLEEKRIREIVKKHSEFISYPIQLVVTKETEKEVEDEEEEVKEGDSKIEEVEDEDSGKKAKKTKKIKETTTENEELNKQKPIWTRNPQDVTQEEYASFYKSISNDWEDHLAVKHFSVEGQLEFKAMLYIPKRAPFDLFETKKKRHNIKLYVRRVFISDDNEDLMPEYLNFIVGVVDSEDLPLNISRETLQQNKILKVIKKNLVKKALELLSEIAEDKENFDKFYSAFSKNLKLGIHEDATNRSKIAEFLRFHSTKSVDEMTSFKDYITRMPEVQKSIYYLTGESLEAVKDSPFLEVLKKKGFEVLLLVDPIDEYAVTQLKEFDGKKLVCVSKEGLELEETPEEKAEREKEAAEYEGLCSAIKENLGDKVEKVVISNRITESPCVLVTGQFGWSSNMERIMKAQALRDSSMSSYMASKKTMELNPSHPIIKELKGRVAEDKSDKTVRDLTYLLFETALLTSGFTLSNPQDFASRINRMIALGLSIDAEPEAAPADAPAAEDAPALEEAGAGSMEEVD

Substance	binding
Gut2 (from UniProt J9VMS4)	binds
Mkt1 (Maintenance of K2 Killer Toxin 1) (from UniProt J9VT48 1-768)	binds
Hsc82 (from UniProt J9VVA4 1-699)	binds

Source: article PMC6811503
